Assay results published in patent US12055536B2, “Device for detection of cellular stress” (Trustees of Boston University, priority 2021, dated 2024).

How the values were obtained:
Assay in all cases: Isotope labeling and SRS imaging
Assay type in all cases: cell-based, human
PEO1 cells = settings: PE01 cells, C-D signal out of total cellular area, mean
PEO4 cells = settings: PE04 cells, C-D signal out of total cellular area, mean
SKOV3 cells = settings: C-D signal out of total cellular area, mean
OVCAR5-cisR cells = settings: C-D signal out of total cellular area, mean
Method: (§1) For labeling with glucose-d7, media was replaced with glucose-free DMEM medium (Thermo Fisher Scientific, #11966025)+10% FBS+P/S supplemented with 25 mM glucose-d7 after seeding the cells in 35 mm glass-bottom dishes overnight. For labeling with FA or analogs, including PA-d31, OA-d34, and ODYA, FA or analogs were added to the culture media at final concentration of 100 μM and cells were treated for 6 h. For quantitative SRS imaging, cells on glass-bottom dishes were fixed with 10% neutral buffered formalin for 30 min and washed with PBS for 3 times. Hyperspectral SRS imaging was performed to the cells at Raman spectral region from 2100 to 2300 cm^−1.
(§2) To identify the source of increased lipid content in cisplatin-resistant ovarian cancer cells, the contribution of de novo lipogenesis and of fatty acid uptake were examined, respectively. Using a stable isotope probing method, the level of lipogenesis was examined by feeding the cells with deuterium labeled glucose-d7. Newly synthesized macromolecules (mostly lipids) were imaged by hyperspectral SRS microscopy at Raman shift from 2050 cm^−1 to 2350 cm^−1, covering the vibrational frequencies of C-D bonds. […] Quantitative analysis confirmed significant reduction of both signal intensity and relative area fraction in PEO4 cells when compared to PEO1 cells (FIG. 2B), indicating a decrease in glucose derived anabolism and de novo lipogenesis in cisplatin-resistant cells. Using a similar approach, the fatty acid uptake was examined by hyperspectral SRS imaging at C-D vibrational frequencies in cells fed with deuterium labeled palmitic acid-d31 (PA-d31). In contrast to glucose-d7 fed cells, C-D signal in PA-d31 fed PEO4 cells was stronger than PEO1 cells (FIG. 2C). […] In addition to saturated FA (PA-d31), the uptake of an unsaturated fatty acid, oleic acid-d34 (OA-d34) was tested.
(§3) Having shown decreased glucose-derived anabolism and increased fatty acid uptake in cisplatin-resistant ovarian cancer cells, whether this metabolic feature can be used for differentiation of cisplatin-resistant from cisplatin-sensitive cancer cells was explored. […] In Table 2 below, quantitation of glucose-d7 (G-d7), PA-d31, and OA-d34 are shown as area fraction of C-D signal out of total cellular area, in mean values.

SKOV3-cisR cells = settings: C-D signal out of total cellular area, mean
Method: as §1, §2, §3

OVCAR5 cells = settings: C-D signal out of total cellular area, mean
COV362 cells = settings: C-D signal out of total cellular area, mean
COV362-cisR cells = settings: C-D signal out of total cellular area, mean

[2H]C(=O)[C@]([2H])(O)[C@@]([2H])(O)[C@]([2H])(O)[C@]([2H])(O)C([2H])([2H])O [G-d7, glucose-d7]
Intensity (area fraction (%)) G-d7 (PEO1 cells; fed with glucose-d7 for 3 days): 3.88% | Intensity (area fraction (%)) G-d7 (PEO4 cells; fed with glucose-d7 for 3 days): 0.93% | Intensity (area fraction (%)) G-d7 (SKOV3 cells; fed with glucose-d7 for 3 days): 3.39% | Intensity (area fraction (%)) G-d7 (OVCAR5-cisR cells; fed with glucose-d7 for 3 days): 2.51% | Intensity (area fraction (%)) G-d7 (SKOV3-cisR cells; fed with glucose-d7 for 3 days): 0.84% | Intensity (area fraction (%)) G-d7 (OVCAR5 cells; fed with glucose-d7 for 3 days): 3.64% | Intensity (area fraction (%)) G-d7 (COV362 cells; fed with glucose-d7 for 3 days): 3.14% | Intensity (area fraction (%)) G-d7 (COV362-cisR cells; fed with glucose-d7 for 3 days): 2.03%

[2H]OC(=O)C([2H])([2H])C([2H])([2H])C([2H])([2H])C([2H])([2H])C([2H])([2H])C([2H])([2H])C([2H])([2H])/C([2H])=C(/[2H])C([2H])([2H])C([2H])([2H])C([2H])([2H])C([2H])([2H])C([2H])([2H])C([2H])([2H])C([2H])([2H])C([2H])([2H])[2H] [OA-d34, oleic acid-d34]
Intensity (area fraction (%)) OA-d34 (PEO1 cells; fed with OA-d34 100 μM for 6 h): 17.25% | Intensity (area fraction (%)) OA-d34 (PEO4 cells; fed with OA-d34 100 μM for 6 h): 21.61% | Intensity (area fraction (%)) OA-d34 (SKOV3 cells; fed with OA-d34 100 μM for 6 h): 6.24% | Intensity (area fraction (%)) OA-d34 (OVCAR5-cisR cells; fed with OA-d34 100 μM for 6 h): 23.28% | Intensity (area fraction (%)) OA-d34 (SKOV3-cisR cells; fed with OA-d34 100 μM for 6 h): 10.97% | Intensity (area fraction (%)) OA-d34 (OVCAR5 cells; fed with OA-d34 100 μM for 6 h): 18.35% | Intensity (area fraction (%)) OA-d34 (COV362 cells; fed with OA-d34 100 μM for 6 h): 31.00% | Intensity (area fraction (%)) OA-d34 (COV362-cisR cells; fed with OA-d34 100 μM for 6 h): 41.43%

[2H]C([2H])([2H])C([2H])([2H])C([2H])([2H])C([2H])([2H])C([2H])([2H])C([2H])([2H])C([2H])([2H])C([2H])([2H])C([2H])([2H])C([2H])([2H])C([2H])([2H])C([2H])([2H])C([2H])([2H])C([2H])([2H])C([2H])([2H])C(=O)O [PA-d31, palmitic acid-d31]
Intensity (area fraction (%)) PA-d31 (COV362 cells; fed with PA-d31 100 μM for 6 h): 4.44% | Intensity (area fraction (%)) PA-d31 (COV362-cisR cells; fed with PA-d31 100 μM for 6 h): 14.88%
